Reference: PubChem BioAssay AID540276 (National Center for Advancing Translational Sciences (NCATS), 2011)
In all, about 300,000 compounds went through this assay and about 5,400 (1.8%) were called active. The inconclusive results got no clear call from the source; some entries with a clear call stand among them for comparison. The call rests on the fitted dose curve; tested in HEK293 cells. Potencies beside an inconclusive call are fits to weak or partial responses and may not hold up.

Experiment: qHTS for inhibitors of binding or entry into cells for Marburg Virus
Conditions: Marburg virus pseudotyped entry inhibition, cell reporter; series mostly up to 37.8 µM
Potency means the concentration at half of the fitted maximal effect.

Row | SMILES | Potency
1 | O=C(OCC1OC(n2ccc(=O)[nH]c2=O)C(Cl)C1O)c1ccccc1 (stereo unspecified) | inconclusive: 0.891 µM [activator, full curve, poor fit]
2 | COc1ccc(S(=O)(=O)N(Cc2ccco2)Cc2cc3ccccc3[nH]c2=O)cc1 | inconclusive: 35.5 µM [inhibitor, single point]
3 | O=C(CC1SC(=O)N(Cc2ccccc2Cl)C1=O)Nc1nccs1 (stereo unspecified) | inconclusive: 1.78 µM [inhibitor, partial curve, poor fit]
4 | CCNc1ccc(Br)cc(C(=O)/C=C/c2ccccc2Cl)c1=O | active: 16.4 µM
5 | COC(=O)c1cccc(N/C=C(\[N+](=O)[O-])S(=O)(=O)c2ccccc2)c1 | inconclusive: 0.891 µM [inhibitor, full curve, poor fit]
6 | CCCCN(C(=O)Cc1ccc2c(c1)OCCO2)c1c(N)n(CC(C)C)c(=O)[nH]c1=O | inactive
7 | O=C(CCN1C(=O)C2C3C=CC(C4CC34)C2C1=O)Oc1ccc(Br)cc1 (stereo unspecified) | inconclusive: 5.01 µM [activator, full curve]
8 | COC(=O)c1ccc(CN2C(=O)c3ccccc3C2=O)cc1 | inconclusive: 2.82 µM [inhibitor, full curve]
9 | CCOC(=O)C1=C(C)N=C2S[C@H](C)C(=O)N2[C@@H]1c1cccc(F)c1 | inconclusive: 31.6 µM [inhibitor, single point]
10 | O=C1COc2ccc(S(=O)(=O)Nc3ccc4c(c3)OCO4)cc2N1 | inconclusive: 35.5 µM [inhibitor, single point]
11 | COc1ccccc1N1CCN(C(=O)c2nc(SC)ncc2Cl)CC1 | inactive
12 | O=C(CN1C(=O)CCSc2ccccc21)Nc1ccc2c(c1)OCO2 | inconclusive: 0.231 µM [inhibitor, partial curve]
13 | Cc1csc(NC(=O)c2sccc2C)n1 | inconclusive: 1 µM [activator, full curve, poor fit]
14 | Cc1ccc(C(=O)NNC(=O)c2ccncc2)cc1S(=O)(=O)N1CCOCC1 | inactive
15 | CC(C)c1ccc(/C=C/C(=O)NCCCN2CCOCC2)cc1 | inactive
16 | CCn1c(-c2ccc(C)cc2)nn(CC(=O)NCCc2ccccc2)c1=S | active: 8.91 µM
17 | COc1ccc(N(CC(=O)NCCSCc2ccco2)S(=O)(=O)c2ccc(C)cc2)cc1 | inconclusive: 8.91 µM [inhibitor, partial curve, poor fit]
18 | Cc1cc(C)cc(NC(=O)C(Cc2ccccc2)NS(=O)(=O)c2ccc3c(c2)c(=O)n(C)c(=O)n3C)c1 (stereo unspecified) | inconclusive: 17.8 µM [inhibitor, single point]
19 | COc1ccccc1OCc1ccc(C(=O)NC(C)(C)C)o1 | inactive
20 | COc1ccc(N(CCC(=O)Nc2ccccc2F)S(=O)(=O)c2ccc(C)cc2C)cc1 | inactive
21 | Cc1cccc(-c2nc(C#N)c(N3CCCCCC3)o2)c1 | inactive
22 | CCCCCNC(=O)C1CC=CCC1C(=O)O (stereo unspecified) | inactive
23 | COc1ccc(Cl)cc1S(=O)(=O)N1CCCC(C(=O)NCc2ccncc2)C1 (stereo unspecified) | inactive

Grouped by structure: those above with bromine (two)
Row | SMILES | Potency
4 | CCNc1ccc(Br)cc(C(=O)/C=C/c2ccccc2Cl)c1=O | active: 16.4 µM
7 | O=C(CCN1C(=O)C2C3C=CC(C4CC34)C2C1=O)Oc1ccc(Br)cc1 (stereo unspecified) | inconclusive: 5.01 µM [activator, full curve]

Carrying on.

Row | SMILES | Potency
24 | COc1ccc(C(=O)C2CCCN(C(=O)c3ccc(OC)o3)C2)c(C)c1 (stereo unspecified) | inconclusive: 14.1 µM [activator, single point]
25 | CC1CCN(C(=O)COC(=O)C2CCN(S(=O)(=O)c3ccc4c(c3)OCCO4)CC2)CC1 | inconclusive: 20 µM [inhibitor, single point]
26 | O=C(Nc1ccc(S(=O)(=O)N2CCCC2)cc1)c1cnccn1 | inactive
27 | CC(C)Cc1ccc(CN2CCCC(NC(=O)Cn3cnnn3)C2)cc1 (stereo unspecified) | inconclusive: 35.5 µM [inhibitor, single point]
28 | O=C(N/N=C/c1ccc(O)c(O)c1)c1cc(-c2ccccc2)nc2ccccc12 | inconclusive: 7.94 µM [inhibitor, single point]
29 | COc1ccc(-c2nc(CSCC(=O)NCC3CCCO3)c(C)o2)cc1OC (stereo unspecified) | inactive
30 | COc1ccc(-n2nnnc2-c2ccccc2)cc1 | inactive
31 | CC(O)CNc1ccc([N+](=O)[O-])cc1S(=O)(=O)N1CCOCC1 (stereo unspecified) | inconclusive: 6.31 µM [inhibitor, single point]
32 | O=C(CCCSc1ccccc1)Nc1cccc(CO)c1 | inconclusive: 5.62 µM [activator, single point]
33 | CC(C)c1nnc(SCC(=O)NCc2ccco2)n1C | inconclusive: 2.51 µM [activator, single point]
34 | COc1ccccc1C(=O)Nc1ccc(S(=O)(=O)NC2=NCCCCC2)cc1 | inactive
35 | Cc1ccc(-n2c(=O)c3cccnc3n2CC(=O)Nc2ccc(Br)cc2)cc1C | inactive
36 | CCn1nc(NC(=O)c2cccnc2)c2cc3ccccc3nc21 | inconclusive: 20.6 µM [inhibitor, partial curve, poor fit]
37 | CCC(=O)N1N=C(c2ccccc2)CC1c1ccccc1 (stereo unspecified) | inactive
38 | Cc1ccc(N2C(=O)NC(NC(=O)C(C)(C)C)(C(F)(F)F)C2=O)cc1 (stereo unspecified) | inactive
39 | COCc1cc(C)n(CC(=O)Nc2ccc(N3CCOCC3)c(Cl)c2)c(=O)c1C#N | inconclusive: 8.91 µM [activator, partial curve, poor fit]
40 | Cc1ccc(CN2CCC(CNC(=O)Nc3ccc(Cl)cc3)C2)cc1 (stereo unspecified) | inconclusive: 22.4 µM [inhibitor, single point]
41 | CCc1noc(C)c1C(=O)Nc1nc2c(C)cc(C)cc2s1 | inconclusive: 7.94 µM [inhibitor, full curve, poor fit]
42 | Cc1cc2nc(-c3ccc(SCC(=O)N4CCN(C(=O)c5ccco5)CC4)nc3)[nH]c2cc1C | inconclusive: 14.6 µM [inhibitor, partial curve]
43 | CCSc1nnc(NC(=O)CSc2nc3c(c(=O)n2CC)SC(C)C3)s1 (stereo unspecified) | inconclusive: 28.2 µM [inhibitor, partial curve, poor fit]
44 | O=C(Cn1nc([N+](=O)[O-])nc1Br)NC1CCCCC1 | inconclusive: 10 µM [inhibitor, partial curve]
45 | Cc1c(C(=O)NCC(c2ccc(Cl)cc2)N2CCOCC2)oc2ccccc12 (stereo unspecified) | inactive
46 | CCOc1ccc(N2CC(c3nc4ccccc4n3CCCOc3ccccc3)CC2=O)cc1 (stereo unspecified) | inactive
